Data: the supplement of paper PMC3334620
In all, about 33,000 sequences were measured (“E-score (-0.5 to 0.5)”: median about -0.015, highest 2% from about 0.3 on). The list shows a part of the results.

target: T1, Abf1 (UniProt P14164); test: PBM E-score (8-mer binding enrichment) (E-score (-0.5 to 0.5)); higher = stronger / more preferred TF binding; conditions: protein concentration: 200 nM; construct: GST-full length
T1 sequence: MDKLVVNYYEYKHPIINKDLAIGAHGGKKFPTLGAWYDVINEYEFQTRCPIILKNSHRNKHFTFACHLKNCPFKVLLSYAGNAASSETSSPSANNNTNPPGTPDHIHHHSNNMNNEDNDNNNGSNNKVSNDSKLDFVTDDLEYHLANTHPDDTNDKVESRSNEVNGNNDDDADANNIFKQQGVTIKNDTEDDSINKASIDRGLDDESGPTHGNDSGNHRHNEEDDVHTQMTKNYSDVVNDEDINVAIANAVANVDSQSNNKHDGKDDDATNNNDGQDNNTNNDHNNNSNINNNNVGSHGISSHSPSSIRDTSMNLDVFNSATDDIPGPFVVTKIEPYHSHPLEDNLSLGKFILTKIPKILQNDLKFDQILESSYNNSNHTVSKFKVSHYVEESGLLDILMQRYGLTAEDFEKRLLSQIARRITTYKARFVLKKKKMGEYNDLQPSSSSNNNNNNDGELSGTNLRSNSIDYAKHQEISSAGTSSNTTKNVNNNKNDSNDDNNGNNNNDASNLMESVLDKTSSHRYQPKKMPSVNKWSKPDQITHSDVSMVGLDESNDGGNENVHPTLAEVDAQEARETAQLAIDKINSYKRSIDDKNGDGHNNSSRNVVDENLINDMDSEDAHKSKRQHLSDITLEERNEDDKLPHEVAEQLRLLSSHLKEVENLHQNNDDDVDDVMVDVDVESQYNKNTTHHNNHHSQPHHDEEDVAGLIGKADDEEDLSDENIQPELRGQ
Summary of the method: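 Universal all-10-mer Agilent arrays, double-stranded by primer extension on fresh or once-stripped slides, were probed with about 100-200 nM GST-tagged yeast transcription factors made by PURExpress. Fluorescent anti-GST detected bound protein, and masliner normalised the scans. E-scores from the Universal PBM Analysis Suite were given to each ungapped eight-base word pooled with its reverse complement.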

| Sequence | PBM E-score |
| --- | --- |
| CAGTCACC | -0.00428 |
| CGAATAGC | -0.2 |
| AAAATACA | 0.0468 |
| ACGGGTCT | -0.199 |
| AGGATTTC | -0.243 |
| ACTGCGCC | -0.0997 |
| ATGGAACC | -0.218 |
| AAGTAGCA | 0.151 |
| CCTGTCAG | -0.249 |
| GTTAAAAC | 0.0636 |
| TTCTAAAA | 0.064 |
| CGCGTTAC | 0.0653 |
| GACCTAGA | 0.00072 |
| CATAACGG | -0.0846 |
| GCGTGCAC | -0.0221 |
| CGTCCTAA | 0.218 |
| TACTCTGA | -0.0882 |
| ATAATGCC | 0.0461 |
| CATTTCCC | 0.138 |
| GGTTTTCA | 0.167 |
| GCTTTCCA | 0.072 |
| ATGTTGGA | 0.052 |
| ATGTCTAC | -0.0792 |
| AAAAAACT | 0.00027 |
| GATACATC | 0.0742 |

Taken from above.
In PBM E-score, AGGATTTC reads -0.243
In PBM E-score, ACGGGTCT reads -0.199
In PBM E-score, AAGTAGCA reads 0.151
In PBM E-score, GTTAAAAC reads 0.0636
In PBM E-score, TACTCTGA reads -0.0882

The list goes on.

| Sequence | PBM E-score |
| --- | --- |
| AGGTATGG | -0.304 |
| CCTACTCG | -0.0904 |
| CATAAACC | 0.0791 |
| AGGGGAAC | -0.236 |
| ACTTTAGC | -0.172 |
| AAGATGCC | -0.0969 |
| CTCCAAAG | -0.0859 |
| TGGCTGAA | -0.00205 |
| AGGCCGAG | -0.0867 |
| CAGATCGA | 0.0324 |
| ATGTCGGG | 0.0062 |
| CGCTAGCA | -0.037 |
| AATCACGT | 0.255 |
| AACAACTG | 0.0451 |
| GGAAATGA | 0.156 |
| GATAAGGA | -0.0227 |
| AACACTAA | 0.0366 |
| AGAGCACG | 0.068 |
| GGAATCAC | 0.112 |
| CCATCTAA | -0.139 |
| GCACGAAC | 0.269 |
| CGTCTGGA | -0.0192 |
| ACGAGCGT | 0.0845 |
| AACTTAGA | 0.0904 |
| AGATGGGG | -0.284 |

| Sequence | PBM E-score |
| --- | --- |
| AGCCATGC | -0.153 |
| GACATTGA | 0.182 |
| AAATAGCA | -0.07 |
| CTCGCGGA | -0.149 |
| CCATCCAG | -0.232 |
| ATTTCCAA | 0.00978 |
| AGCTTTAT | 0.00195 |
| GGATCCTA | -0.0233 |
| ATAGTGCA | 0.141 |
| ACTGCTAA | -0.185 |
| AGCTCACA | 0.0527 |
| CACTAGAC | 0.0603 |
| AGGCCCCA | -0.212 |
| CCAACCGA | 0.00434 |
| CCTGAACG | -0.0804 |
| CTAACGAG | 0.148 |
| GATGCAGA | -0.0479 |
| CCGGTTCG | -0.035 |
| CGAGGACC | -0.0869 |
| AGCTGAGG | -0.196 |
| CGAGCGCC | -0.088 |
| ACACACAA | 0.0411 |
| ACAAACGT | -0.084 |
| ACAAAGGT | 0.151 |
| ACCCCTAA | -0.2 |

Random excerpt: two entries already listed.

| Sequence | PBM E-score |
| --- | --- |
| ACGAGCGT | 0.0845 |
| CCATCCAG | -0.232 |

Further records follow:

| Sequence | PBM E-score |
| --- | --- |
| CCATAAGG | -0.243 |
| TAAGGTCA | 0.051 |
| AATCGGCG | -0.0845 |
| ACGTCGCT | 0.144 |
| CACTGCAA | 0.0215 |
| GGTTCCAC | -0.144 |
| CGCCCGGA | -0.138 |
| ATCGCTGG | 0.108 |
| CTAGGTCA | 0.00518 |
| CAGTCTAG | 0.0222 |
| AGTTTCCG | 0.0122 |
| ATTGGGCA | 0.0135 |
| ACGGCCCA | -0.0404 |
| AAACACCA | -0.0704 |
| GTTCAACA | 0.135 |
| ACGTAGAA | 0.108 |
| ATCATCTC | 0.253 |
| TGAATCAA | 0.0162 |
| GAGAACAA | 0.178 |
| ACTGACGC | -0.209 |
| ATTCCACA | 0.0484 |
| AAAGTCTA | 0.0425 |
| CACCTTCC | -0.0606 |
| CCCATCAA | -0.153 |
| TGCTGCCA | -0.246 |

| Sequence | PBM E-score |
| --- | --- |
| AAGTTCCC | -0.051 |
| GCCCCAGC | -0.274 |
| GTATAGGA | 0.0694 |
| GCGAAGGA | -0.00182 |
| AGGACTTG | -0.313 |
| AAGGTGGT | -0.0932 |
| ACGACAAT | 0.329 |
| ACCACTAA | -0.0853 |
| CCAGTCAG | -0.175 |
| GCATGATA | 0.268 |
| ATTAGAGA | 0.0917 |
| CGAACAAG | 0.173 |
| AGTGTGTC | 0.0172 |
| GGGCTATA | -0.0762 |
| CGCAAGGA | -0.102 |
| ACACCCGT | -0.04 |
| GTCCGAAA | 0.195 |
| CATAGTGC | 0.015 |
| GGTTTGAA | 0.132 |
| CGCGGAGC | -0.176 |
| ATATTCCG | 0.0799 |
| AAGTTAGC | -0.0803 |
| GCAGACGA | 0.174 |
| CCGTTAGA | 0.233 |
| CAACGTAG | 0.108 |

| Sequence | PBM E-score |
| --- | --- |
| ATACGACG | 0.341 |
| TGTGCACA | 0.0303 |
| GCTGCGAC | 0.00577 |
| GCAAGTTA | 0.0664 |
| CCCGTTGC | -0.104 |
| CGCTCTTA | 0.0213 |
| CTGACCCA | -0.152 |
| GCGGCACC | -0.107 |
| CAACAGGA | -0.192 |
| AATAACAG | 0.0417 |
| AGGAACCC | -0.249 |
| ACCGCACT | -0.0404 |
| CCTATTTA | -0.0117 |
| ACCTCGCT | -0.0122 |
| AGTCGAAG | -0.187 |
| ATACCCGC | -0.115 |
| CTACGGGA | 0.127 |
| CTTAAGGA | -0.0142 |
| ATGCTCTC | -0.159 |
| ACGTGGCG | 0.0289 |
| GTTCGAAC | 0.21 |
| ATCGAAAG | 0.0492 |
| GGTGCACA | -0.05 |
| AAGACAGA | 0.00785 |
| AAACATTT | 0.0327 |

| Sequence | PBM E-score |
| --- | --- |
| AGGTGCGG | -0.189 |
| TATATAGA | 0.0514 |
| ACCGGAAT | -0.0838 |
| CAAATGAG | -0.0746 |
| GAACGGAA | 0.0732 |
| GATAGAGA | 0.0831 |
| CGTTAGAC | 0.161 |
| ATTCGCAC | -0.0126 |
| AGGCCGCG | -0.145 |
| CAAACTCG | -0.109 |
| AGTATGAG | 0.0175 |
| AATGGTTG | -0.0278 |
| CGGATGCC | 0.0886 |
| AATATTGG | 0.0158 |
| AAAACGAA | 0.167 |
| AGCCCGTC | -0.0082 |
| CACATATA | -0.0348 |
| TGAAGTCA | 0.0804 |
| CATTGATA | 0.151 |
| ACAGACGT | -0.0318 |
| GCCACCCC | -0.16 |
| CATGAACA | 0.0948 |
